Laboratory results taken from article PMC10539501 (Nature Communications, 2023).

How the values were obtained:
[1] = in vitro; type: in vitro ADME, human; details: human
[2] = tested on: Caco-2 cells; assay: in vitro; type: in vitro ADME, human; details: Caco-2
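Further: Caco-2 monolayers used 21 days after seeding in HBSS-HEPES buffer with 1% DMSO, donor and acceptor levels quantified by LC-MS/MS, TEER checked before and after.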

Papp A→B ([1]; Caco-2, Papp A-B avg): 0.392 ×10⁻⁶ cm/s
Papp B→A ([1]; Caco-2, Papp B-A avg): 1.36 ×10⁻⁶ cm/s
Papp A-B avg (second block) [2]: 0.39 ×10⁻⁶ cm/s
Papp A-B set 1 (second block) [2]: 0.26 ×10⁻⁶ cm/s
Papp A-B set 2 (second block) [2]: 0.52 ×10⁻⁶ cm/s
Papp B-A avg (second block) [2]: 1.4 ×10⁻⁶ cm/s
Papp B-A set 1 (second block) [2]: 1.3 ×10⁻⁶ cm/s
Papp B-A set 2 (second block) [2]: 1.4 ×10⁻⁶ cm/s
SMILES: CC(C)NCC(O)COc1ccc(CC(N)=O)cc1 (centres unmarked) [Atenolol, reference compound]
